The test system of this data set is recombinant strain for α,ω-carboxylation (Candida tropicalis Ct6). The data set is described as follows: α,ω-Carboxylation of dialkyl ether compounds by fermentation, 5-L fermentor, GC-MS. The note with it: 10 mL substrate in 2-L culture, pH 7.5, 30° C. (33° C. for diundecyl and didodecyl ether). It counts as cell-based.

Molecules are shown by their SMILES.

As to `CCCCCCCCCCOCCCCCCCCCC` [Didecyl ether, didecyl ether], the “Conversion rate(%) 4 hours after substrate addition” value (“Conversion rate(%) 4 hours” for short) is given as 65.37 ± 1.35% and the “Conversion rate(%) 6 hours after substrate addition” value (“Conversion rate(%) 6 hours” for short) is 76.24 ± 1.42%.

For the compound `CCCCCCCCCCCCOCCCCCCCCCCCC` [Didodecyl ether, didodecyl ether], the “Conversion rate(%) 4 hours” value amounted to 75.58 ± 3.00% and the “Conversion rate(%) 6 hours” value was 100%.

For `CCCCCCCOCCCCCCC` [Diheptyl ether, diheptyl ether], the “Conversion rate(%) 4 hours” value came out at 80.66 ± 4.89% and the “Conversion rate(%) 6 hours” value came out at 100%.

Take `CCCCCCOCCCCCC` [Dihexyl ether, dihexyl ether]: the “Conversion rate(%) 4 hours” value is reported as 54.54 ± 1.06% and the “Conversion rate(%) 6 hours” value amounted to 73.14 ± 0.55%.

Turning to `CCCCCCCCOCCCCCCCC` [Dioctyl ether, dioctyl ether], the “Conversion rate(%) 4 hours” value came out at 90.17 ± 0.62% and the “Conversion rate(%) 6 hours” value was 100%.

`CCCCCOCCCCC` [Dipentyl ether, dipentyl ether]: the “Conversion rate(%) 4 hours” value is on record as 44.80 ± 0.31% and the “Conversion rate(%) 6 hours” value stood at 70.79 ± 0.23%.

Consider `CCCCCCCCCCCOCCCCCCCCCCC` [Diundecyl ether, diundecyl ether], for which the “Conversion rate(%) 4 hours” value is 97.31 ± 1.44% and the “Conversion rate(%) 6 hours” value turned out to be 100%.

For the origin of these results see patent US20250340911A1, “METHOD FOR PRODUCING FROM FATTY ALCOHOLS MONOMERS FOR PRODUCING VARIOUS SYNTHETIC RESINS” (priority 2022, published 2025).
